The nature of the data set: Aqueous solubility of the compound at pH 7.4. Conditions: buffer.

The structures appear in SMILES notation. Converted amounts (≈) assume the structure as drawn.

In general, solubility refers to the dissolved amount per volume that the medium holds. Lower therefore signals a poorly soluble substance. As to `COc1ccc(-c2cc(C(=O)N[C@H]3CCCN(C)C3)nn2C)c(Cl)c1`, the solubility stood at 288 µM (≈ 105 µg/mL).

These data come from ChEMBL document CHEMBL5365451, “Discovery of CVN417, a Novel Brain-Penetrant α6-Containing Nicotinic Receptor Antagonist for the Modulation of Motor Dysfunction” (J Med Chem, 2023).
